Results are given in words; binding and its absence hold for the method and conditions named. Binding seen in cells or lysates may run through a third protein. Some entries that bind do so weakly or less than the wild type. Sequences can lack the tags named with a protein.
Key:
[1] = target: T1, GST-Nrd1 (wild-type Nrd1, RRM-type RNA-binding protein) (S. pombe) (UniProt Q09702); assay: pull-down; GST-fused Nrd1 versions co-expressed in S. pombe cells with endogenous Cpc2-GFP; lysates bound to glutathione sepharose, immunoblot with anti-GFP and anti-GST; cells untreated (27°C), heat shock (42°C, 10 min) or 2.0 mM arsenite (120 min)
T1 sequence: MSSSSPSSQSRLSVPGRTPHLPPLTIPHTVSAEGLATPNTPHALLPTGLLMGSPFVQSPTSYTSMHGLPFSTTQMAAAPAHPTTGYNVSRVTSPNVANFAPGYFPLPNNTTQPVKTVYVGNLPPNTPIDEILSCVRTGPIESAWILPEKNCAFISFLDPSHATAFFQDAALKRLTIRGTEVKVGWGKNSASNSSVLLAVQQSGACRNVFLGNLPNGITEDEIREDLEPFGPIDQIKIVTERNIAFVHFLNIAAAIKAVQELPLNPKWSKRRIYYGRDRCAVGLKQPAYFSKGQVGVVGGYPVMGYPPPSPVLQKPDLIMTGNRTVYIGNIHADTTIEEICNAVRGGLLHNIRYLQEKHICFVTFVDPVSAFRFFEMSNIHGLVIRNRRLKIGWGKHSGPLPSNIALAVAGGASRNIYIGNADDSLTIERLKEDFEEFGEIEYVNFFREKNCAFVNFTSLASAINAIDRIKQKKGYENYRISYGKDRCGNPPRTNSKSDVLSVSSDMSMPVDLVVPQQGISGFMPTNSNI

[2] = target: T2, GST-Nrd1^DD (phosphorylation-mimic Nrd1, T40 and T126 replaced with aspartic acid) (S. pombe) (UniProt Q09702); assay: as above
T2 sequence: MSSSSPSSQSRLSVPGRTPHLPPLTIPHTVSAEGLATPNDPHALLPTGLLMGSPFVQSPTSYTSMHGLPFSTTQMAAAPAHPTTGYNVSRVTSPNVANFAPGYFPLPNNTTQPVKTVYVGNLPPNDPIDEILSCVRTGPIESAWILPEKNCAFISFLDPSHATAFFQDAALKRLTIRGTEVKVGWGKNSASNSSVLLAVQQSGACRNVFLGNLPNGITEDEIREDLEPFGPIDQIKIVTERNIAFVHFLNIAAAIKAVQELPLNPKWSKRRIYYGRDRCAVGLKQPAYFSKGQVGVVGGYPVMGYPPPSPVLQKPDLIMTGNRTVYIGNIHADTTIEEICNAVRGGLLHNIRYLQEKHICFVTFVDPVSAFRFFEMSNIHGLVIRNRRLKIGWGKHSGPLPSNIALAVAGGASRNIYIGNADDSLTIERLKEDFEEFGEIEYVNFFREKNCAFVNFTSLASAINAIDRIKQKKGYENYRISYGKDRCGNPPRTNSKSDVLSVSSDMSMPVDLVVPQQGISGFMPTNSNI

binding [1]: binds | binding [2]: binds
B1: Cpc2-GFP (Cpc2, the RACK1 orthologue in fission yeast) (protein, UniProt Q10281 1-314)
chain: MPEQLVLRATLEGHSGWVTSLSTAPENPDILLSGSRDKSIILWNLVRDDVNYGVAQRRLTGHSHFVSDCALSFDSHYALSASWDKTIRLWDLEKGECTHQFVGHTSDVLSVSISPDNRQVVSGSRDKTIKIWNIIGNCKYTITDGGHSDWVSCVRFSPNPDNLTFVSAGWDKAVKVWDLETFSLRTSHYGHTGYVSAVTISPDGSLCASGGRDGTLMLWDLNESTHLYSLEAKANINALVFSPNRYWLCAATGSSIRIFDLETQEKVDELTVDFVGVGKKSSEPECISLTWSPDGQTLFSGWTDNLIRVWQVTK
